For one molecule, binding results are on record in patent US20220202859A1, “CANCER TREATMENT USING CD38 INHIBITOR AND/OR LENALIDOMIDE AND T-CELLS EXPRESSING A CHIMERIC ANTIGEN RECEPTOR” (CRISPR THERAPEUTICS AG, priority 2020, published 2022).

Chains of the proteins cited; added tags and fusions are not shown. Residues count along the entry.
UniProt Q02223, residues 1-54: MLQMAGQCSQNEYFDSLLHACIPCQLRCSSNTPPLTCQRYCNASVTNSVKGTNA

Results are given in words; binding and its absence hold for the method and conditions named. Some binding calls cover weakened binding; strength is not graded here.

The target of the assay is purified BCMA protein (UniProt Q02223). Nature of the assay: immunohistochemistry, purified BCMA protein absorbed to a tissue slide, antibody at 5.0 and 50.0 µg/mL.

B1: humanized mouse antibody from which the scFv portion of the CTX120 CAR was derived (antibody, V domains shown)
VH: QVQLVQSGAELKKPGASVKVSCKASGNTLTNYVIHWVRQAPGQRLEWMGYILPYNDLTKYSQKFQGRVTITRDKSASTAYMELSSLRSEDTAVYYCTRWDWDGFFDPWGQGTTVTVSS
VL: EIVMTQSPATLSVSPGERASISCRASQSLVHSNGNTHLHWYQQRPGQAPRLLIYSVSNRFSEVPARFSGSGSGTDFTLTISSVESEDFAVYYCSQTSHIPYTFGGGTKLEIK
Consider B1, for which the binding result is “binds”.
